Measured values reported in the supplement of paper PMC12067093, “Discovery and optimisation of a covalent ligand for TRIM25 and its application to targeted protein ubiquitination” (Chemical Science, 2025).
This is one part of the list.

By UniProt entry, the sequences of proteins in these tests, tags left out. Where a name states a change or a piece, a line headed by the entry shows the natural chain unless it says otherwise.
UniProt A2RUS2: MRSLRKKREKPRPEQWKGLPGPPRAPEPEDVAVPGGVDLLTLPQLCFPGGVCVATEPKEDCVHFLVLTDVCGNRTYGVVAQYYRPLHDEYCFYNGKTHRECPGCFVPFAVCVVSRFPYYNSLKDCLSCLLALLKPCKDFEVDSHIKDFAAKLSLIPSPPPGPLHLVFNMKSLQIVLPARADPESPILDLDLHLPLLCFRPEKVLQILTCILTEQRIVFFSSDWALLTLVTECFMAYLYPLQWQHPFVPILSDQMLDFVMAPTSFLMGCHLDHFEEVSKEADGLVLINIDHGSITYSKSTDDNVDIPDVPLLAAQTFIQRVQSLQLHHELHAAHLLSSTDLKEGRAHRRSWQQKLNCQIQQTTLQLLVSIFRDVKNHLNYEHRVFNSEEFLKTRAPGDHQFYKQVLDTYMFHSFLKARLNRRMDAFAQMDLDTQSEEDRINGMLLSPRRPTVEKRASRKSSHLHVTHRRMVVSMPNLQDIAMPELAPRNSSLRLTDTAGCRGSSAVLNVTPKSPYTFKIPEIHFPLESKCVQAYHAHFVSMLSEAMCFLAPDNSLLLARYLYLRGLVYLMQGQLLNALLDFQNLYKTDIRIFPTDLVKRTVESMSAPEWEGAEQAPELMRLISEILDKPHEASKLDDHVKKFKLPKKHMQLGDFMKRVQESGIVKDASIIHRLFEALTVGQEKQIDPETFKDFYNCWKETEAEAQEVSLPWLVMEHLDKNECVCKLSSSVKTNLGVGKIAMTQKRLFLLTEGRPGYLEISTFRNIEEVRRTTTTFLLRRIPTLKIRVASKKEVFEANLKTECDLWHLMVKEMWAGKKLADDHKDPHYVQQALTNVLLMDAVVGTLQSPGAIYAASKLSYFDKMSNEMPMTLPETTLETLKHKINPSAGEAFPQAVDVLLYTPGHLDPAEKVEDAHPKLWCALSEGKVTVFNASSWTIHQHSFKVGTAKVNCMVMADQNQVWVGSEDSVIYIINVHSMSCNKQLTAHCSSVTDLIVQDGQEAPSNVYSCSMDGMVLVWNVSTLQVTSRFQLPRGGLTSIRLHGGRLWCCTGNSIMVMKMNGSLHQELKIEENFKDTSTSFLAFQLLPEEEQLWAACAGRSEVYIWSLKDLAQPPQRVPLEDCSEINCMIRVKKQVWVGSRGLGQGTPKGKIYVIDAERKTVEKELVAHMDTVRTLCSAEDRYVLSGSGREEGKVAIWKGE
UniProt Q13838, whole entry, looked up: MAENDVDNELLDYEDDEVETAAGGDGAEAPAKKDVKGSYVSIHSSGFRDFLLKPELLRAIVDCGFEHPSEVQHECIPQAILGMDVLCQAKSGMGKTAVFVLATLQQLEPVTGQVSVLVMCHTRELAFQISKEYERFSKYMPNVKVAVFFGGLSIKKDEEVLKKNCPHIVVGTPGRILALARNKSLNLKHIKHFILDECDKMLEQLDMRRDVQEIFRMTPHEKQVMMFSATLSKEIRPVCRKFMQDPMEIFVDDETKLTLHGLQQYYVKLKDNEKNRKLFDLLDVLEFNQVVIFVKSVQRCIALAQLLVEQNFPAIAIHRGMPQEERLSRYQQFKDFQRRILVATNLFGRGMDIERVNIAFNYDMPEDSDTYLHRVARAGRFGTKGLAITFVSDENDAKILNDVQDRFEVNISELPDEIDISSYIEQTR
UniProt P52824: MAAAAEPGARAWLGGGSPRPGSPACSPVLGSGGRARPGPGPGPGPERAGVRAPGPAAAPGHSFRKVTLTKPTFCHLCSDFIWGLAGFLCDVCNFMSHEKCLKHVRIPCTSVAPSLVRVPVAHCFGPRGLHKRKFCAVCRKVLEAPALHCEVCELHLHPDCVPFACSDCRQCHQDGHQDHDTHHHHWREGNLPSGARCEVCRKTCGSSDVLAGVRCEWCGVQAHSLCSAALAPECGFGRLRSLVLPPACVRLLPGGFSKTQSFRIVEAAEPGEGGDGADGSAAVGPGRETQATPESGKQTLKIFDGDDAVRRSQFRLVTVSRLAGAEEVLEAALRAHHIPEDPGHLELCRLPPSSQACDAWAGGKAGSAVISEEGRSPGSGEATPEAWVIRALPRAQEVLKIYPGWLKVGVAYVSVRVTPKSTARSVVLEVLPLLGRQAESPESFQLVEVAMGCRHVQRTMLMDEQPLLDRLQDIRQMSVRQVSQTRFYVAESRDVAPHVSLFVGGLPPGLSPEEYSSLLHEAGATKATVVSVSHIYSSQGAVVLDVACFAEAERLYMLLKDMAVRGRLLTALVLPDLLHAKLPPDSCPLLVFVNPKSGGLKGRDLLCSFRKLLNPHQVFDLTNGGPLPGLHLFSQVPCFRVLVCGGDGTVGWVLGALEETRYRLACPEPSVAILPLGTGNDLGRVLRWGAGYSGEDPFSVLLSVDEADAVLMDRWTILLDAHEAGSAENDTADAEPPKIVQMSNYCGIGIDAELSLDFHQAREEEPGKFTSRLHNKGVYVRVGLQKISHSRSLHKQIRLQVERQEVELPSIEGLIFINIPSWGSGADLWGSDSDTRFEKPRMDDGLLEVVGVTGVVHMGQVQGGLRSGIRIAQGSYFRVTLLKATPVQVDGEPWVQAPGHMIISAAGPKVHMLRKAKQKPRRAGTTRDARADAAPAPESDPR
UniProt Q16760: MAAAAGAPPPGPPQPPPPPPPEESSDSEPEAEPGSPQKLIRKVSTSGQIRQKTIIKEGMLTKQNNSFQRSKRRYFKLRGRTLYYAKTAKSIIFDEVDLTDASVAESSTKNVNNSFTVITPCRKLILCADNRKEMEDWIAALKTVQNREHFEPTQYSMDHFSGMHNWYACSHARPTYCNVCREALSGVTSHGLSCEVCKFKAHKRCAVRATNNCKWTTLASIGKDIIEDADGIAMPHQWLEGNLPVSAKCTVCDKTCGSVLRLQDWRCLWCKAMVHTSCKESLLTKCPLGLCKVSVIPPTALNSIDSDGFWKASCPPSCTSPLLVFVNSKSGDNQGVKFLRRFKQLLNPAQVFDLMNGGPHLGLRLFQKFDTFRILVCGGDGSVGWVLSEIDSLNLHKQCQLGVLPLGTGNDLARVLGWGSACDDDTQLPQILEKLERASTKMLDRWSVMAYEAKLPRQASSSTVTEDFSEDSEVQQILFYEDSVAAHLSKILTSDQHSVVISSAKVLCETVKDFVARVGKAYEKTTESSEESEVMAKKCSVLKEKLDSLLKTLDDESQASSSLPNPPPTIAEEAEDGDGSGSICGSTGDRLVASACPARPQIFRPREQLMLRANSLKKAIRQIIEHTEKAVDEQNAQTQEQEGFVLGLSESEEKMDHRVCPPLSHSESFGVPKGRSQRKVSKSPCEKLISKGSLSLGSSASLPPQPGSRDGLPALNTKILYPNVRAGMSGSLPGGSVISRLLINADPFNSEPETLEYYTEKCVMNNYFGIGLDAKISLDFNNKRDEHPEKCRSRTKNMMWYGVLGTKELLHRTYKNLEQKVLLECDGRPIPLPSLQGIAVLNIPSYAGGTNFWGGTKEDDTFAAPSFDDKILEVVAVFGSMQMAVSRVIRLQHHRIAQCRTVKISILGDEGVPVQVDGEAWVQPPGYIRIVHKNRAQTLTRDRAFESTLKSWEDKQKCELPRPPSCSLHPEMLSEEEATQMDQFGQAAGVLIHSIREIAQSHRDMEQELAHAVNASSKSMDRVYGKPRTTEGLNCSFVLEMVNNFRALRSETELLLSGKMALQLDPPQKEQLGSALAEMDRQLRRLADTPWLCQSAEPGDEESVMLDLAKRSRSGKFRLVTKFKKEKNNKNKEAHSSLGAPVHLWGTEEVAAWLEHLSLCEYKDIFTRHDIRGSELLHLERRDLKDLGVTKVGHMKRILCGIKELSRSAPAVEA
UniProt Q86XP3: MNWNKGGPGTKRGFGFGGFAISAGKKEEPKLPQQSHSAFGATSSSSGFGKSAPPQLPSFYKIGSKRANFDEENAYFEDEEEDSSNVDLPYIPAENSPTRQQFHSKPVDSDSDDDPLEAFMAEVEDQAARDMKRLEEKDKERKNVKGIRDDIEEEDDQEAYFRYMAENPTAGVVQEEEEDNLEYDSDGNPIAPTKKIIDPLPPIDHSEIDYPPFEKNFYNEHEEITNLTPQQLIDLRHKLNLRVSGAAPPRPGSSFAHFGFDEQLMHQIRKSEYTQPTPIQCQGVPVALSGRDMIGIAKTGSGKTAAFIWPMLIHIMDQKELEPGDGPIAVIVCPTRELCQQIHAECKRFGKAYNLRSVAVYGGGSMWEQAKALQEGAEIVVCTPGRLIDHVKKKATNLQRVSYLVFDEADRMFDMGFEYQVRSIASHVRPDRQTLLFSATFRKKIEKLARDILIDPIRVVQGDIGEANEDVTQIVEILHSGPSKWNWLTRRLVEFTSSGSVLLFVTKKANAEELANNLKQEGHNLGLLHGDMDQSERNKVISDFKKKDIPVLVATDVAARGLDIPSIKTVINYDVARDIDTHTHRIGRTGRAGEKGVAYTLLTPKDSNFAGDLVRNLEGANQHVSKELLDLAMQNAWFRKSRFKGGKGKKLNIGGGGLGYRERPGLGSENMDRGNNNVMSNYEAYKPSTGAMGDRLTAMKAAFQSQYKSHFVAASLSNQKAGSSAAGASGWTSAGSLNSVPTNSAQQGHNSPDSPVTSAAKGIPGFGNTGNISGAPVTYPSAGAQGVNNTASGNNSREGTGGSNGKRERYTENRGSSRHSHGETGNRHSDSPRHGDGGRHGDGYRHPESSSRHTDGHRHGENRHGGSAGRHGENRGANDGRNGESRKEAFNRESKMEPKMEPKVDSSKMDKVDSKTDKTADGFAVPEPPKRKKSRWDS
UniProt Q8WYQ5: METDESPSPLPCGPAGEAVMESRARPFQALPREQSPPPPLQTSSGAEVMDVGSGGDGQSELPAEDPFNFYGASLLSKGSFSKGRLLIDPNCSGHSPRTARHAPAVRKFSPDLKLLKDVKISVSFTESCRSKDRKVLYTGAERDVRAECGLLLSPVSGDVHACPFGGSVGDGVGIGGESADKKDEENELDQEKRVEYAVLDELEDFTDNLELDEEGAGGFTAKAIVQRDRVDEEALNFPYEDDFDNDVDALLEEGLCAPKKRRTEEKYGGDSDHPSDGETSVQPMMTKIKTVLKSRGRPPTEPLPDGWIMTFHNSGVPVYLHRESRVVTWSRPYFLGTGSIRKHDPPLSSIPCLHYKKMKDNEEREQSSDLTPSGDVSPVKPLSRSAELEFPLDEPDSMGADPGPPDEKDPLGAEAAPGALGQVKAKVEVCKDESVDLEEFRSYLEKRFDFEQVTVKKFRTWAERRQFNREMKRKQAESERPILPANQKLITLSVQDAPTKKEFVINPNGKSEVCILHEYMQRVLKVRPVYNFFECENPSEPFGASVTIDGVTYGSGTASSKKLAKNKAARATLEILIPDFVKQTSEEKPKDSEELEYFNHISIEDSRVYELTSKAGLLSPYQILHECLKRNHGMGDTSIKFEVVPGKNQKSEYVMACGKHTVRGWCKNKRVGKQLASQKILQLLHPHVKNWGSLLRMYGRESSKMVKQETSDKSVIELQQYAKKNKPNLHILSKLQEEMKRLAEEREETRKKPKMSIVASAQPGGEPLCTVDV
UniProt Q16698: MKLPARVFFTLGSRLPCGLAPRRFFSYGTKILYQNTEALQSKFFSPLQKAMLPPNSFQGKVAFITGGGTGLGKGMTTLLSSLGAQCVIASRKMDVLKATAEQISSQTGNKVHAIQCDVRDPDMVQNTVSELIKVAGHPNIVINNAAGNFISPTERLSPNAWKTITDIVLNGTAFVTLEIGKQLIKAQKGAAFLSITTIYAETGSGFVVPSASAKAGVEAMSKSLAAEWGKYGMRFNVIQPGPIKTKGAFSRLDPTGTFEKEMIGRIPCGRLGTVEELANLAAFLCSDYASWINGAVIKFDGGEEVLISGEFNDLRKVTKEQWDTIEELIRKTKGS
UniProt O00571: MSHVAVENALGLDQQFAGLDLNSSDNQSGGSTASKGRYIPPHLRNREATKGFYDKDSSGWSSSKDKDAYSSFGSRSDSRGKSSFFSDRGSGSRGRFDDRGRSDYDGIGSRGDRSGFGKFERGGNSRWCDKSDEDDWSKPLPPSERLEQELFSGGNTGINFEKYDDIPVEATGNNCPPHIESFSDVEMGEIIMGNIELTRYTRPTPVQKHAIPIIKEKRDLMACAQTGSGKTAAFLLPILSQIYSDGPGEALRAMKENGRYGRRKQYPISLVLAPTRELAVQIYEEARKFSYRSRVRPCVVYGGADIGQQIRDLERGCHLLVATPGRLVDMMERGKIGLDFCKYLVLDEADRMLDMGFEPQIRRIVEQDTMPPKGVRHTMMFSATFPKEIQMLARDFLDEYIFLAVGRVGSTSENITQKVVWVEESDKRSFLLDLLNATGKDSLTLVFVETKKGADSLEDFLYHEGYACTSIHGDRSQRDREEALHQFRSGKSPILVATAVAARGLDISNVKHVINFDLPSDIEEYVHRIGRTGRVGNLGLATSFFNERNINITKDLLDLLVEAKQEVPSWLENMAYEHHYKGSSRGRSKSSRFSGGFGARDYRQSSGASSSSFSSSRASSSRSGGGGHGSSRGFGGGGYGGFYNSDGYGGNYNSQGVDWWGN

compound: CC1Cc2ccccc2N1C(=O)C1CCCN(C1)C(=O)CCl (mixture of isomers) [TRIM25 ligand 11 (diastereomer mixture)]; experiment: probe-labelled cysteine peptide fold change vs DMSO (competition) (log2 fold change); higher = less target engagement (more negative = stronger competition); settings: 10 µM; THP-1; incubation time: 4 h
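Further: competitive chemoproteomic profiling in live THP-1 cells with an iodoacetamide desthiobiotin (IA-DTB) probe, comparing probe-labelled peptide intensities in compound-treated cells against DMSO-treated controls.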

| Target | probe-labelled cysteine peptide fold change |
| --- | --- |
| DDX1_Q92499_406_LQVIVCSATLHSFDVK (UniProt Q92499) | 0.000348 |
| DDX39A_O00148_238_DIRPVCR (UniProt O00148) | 0.0321 |
| DDX39A_O00148_164_NCPHVVVGTPGR (UniProt O00148) | 0.0425 |
| DDX5_P17844_320_DYIHINIGALELSANHNILQIVDVCHDVEK (UniProt P17844) | 0.213 |
| DENND3_A2RUS2_695_DFYNCWK (UniProt A2RUS2) | -0.0755 |
| DDX24_Q9GZR7_467_CLVVDEADRMVEK (UniProt Q9GZR7) | -0.109 |
| DDX46_Q7L014_696_HLILVVNYSCPNHYEDYVHR (UniProt Q7L014) | 0.00951 |
| DECR2_Q9NUI1_53_HGCHTVIASR (UniProt Q9NUI1) | 0.317 |
| DDX59_Q5T1V6_414_NLPCANVR (UniProt Q5T1V6) | 0.0475 |
| DDX17_Q92841_199_PVFAFHHANFPQYVMDVLMDQHFTEPTPIQCQGFPLALSGR (UniProt Q92841) | -0.00752 |
| DDX21_Q9NR30_291_LSVACFYGGTPYGGQFER (UniProt Q9NR30) | -0.101 |
| DENND3_A2RUS2_499_LTDTAGCR (UniProt A2RUS2) | 0.00569 |
| DDX41_Q9UJV9_294_CALCIGGMSVK (UniProt Q9UJV9) | -0.132 |
| DDX17_Q92841_397_DYTQINVGNLELSANHNILQIVDVCMESEK (UniProt Q92841) | 0.127 |
| DDX19A_Q9NUU7_166_YPQCLCLSPTYELALQTGK (UniProt Q9NUU7) | 0.107 |
| DDX39B_Q13838_300_CIALAQLLVEQNFPAIAIHR (UniProt Q13838) | 0.224 |
| DGKQ_P52824_638_LLNPHQVFDLTNGGPLPGLHLFSQVPCFR (UniProt P52824) | -0.286 |
| DEAF1_O75398_401_ASHPEPHYPGYQDSCQIAPFPEAALPTSHPK (UniProt O75398) | 0.0195 |
| DDX51_Q8N8A6_338_CLADIVVATPGR (UniProt Q8N8A6) | 0.196 |
| DGKD_Q16760_596_LVASACPARPQIFRPR (UniProt Q16760) | -0.0465 |

| Target | probe-labelled cysteine peptide fold change |
| --- | --- |
| DENR_O43583_13_AADISESSGADCK (UniProt O43583) | -0.161 |
| DDOST_P39656_145_ELGSECGIEFDEEK (UniProt P39656) | 0.0142 |
| DEPDC1B_Q8WUY9_43_SYEHCFTAAEAVDWLHELLR (UniProt Q8WUY9) | 0.0671 |
| DENND4B_O75064_652_HAALEFFDSCVEK (UniProt O75064) | 0.102 |
| DDX42_Q86XP3_346_ELCQQIHAECKR (UniProt Q86XP3) | -0.0643 |
| DDX60_Q8IY21_1591_VAISPFVCLSGNFDDDLLRLETPNHVTLGTIGVNR (UniProt Q8IY21) | -0.227 |
| DGCR8_Q8WYQ5_352_KHDPPLSSIPCLHYK (UniProt Q8WYQ5) | 0.00591 |
| DGKZ_Q13574_697_VVCDGMDLTPK (UniProt Q13574) | 0.0189 |
| DDB1_Q16531_652_SLSTTNVFACSDRPTVIYSSNHK (UniProt Q16531) | 0.282 |
| DDX21_Q9NR30_537+539_TGVCICFYQHK (UniProt Q9NR30) | 0.016 |
| DDX17_Q92841_319_CTYLVLDEADRMLDMGFEPQIR (UniProt Q92841) | -0.416 |
| DECR1_Q16698_86_GMTTLLSSLGAQCVIASR (UniProt Q16698) | -0.0485 |
| DDX41_Q9UJV9_281_QTHGILEYYCR (UniProt Q9UJV9) | 0.0671 |
| DEPDC5_O75140_966_ITEGEAHCDIYGDRPR (UniProt O75140) | 0.15 |
| DEF6_Q9H4E7_266_GIIPLDAHCCVEVLPDRDGKR (UniProt Q9H4E7) | 0.0844 |
| DDX60L_Q5H9U9_615_KLEDYLTSCASNSVK (UniProt Q5H9U9) | -0.0574 |
| DECR2_Q9NUI1_13_AQPPPDVEGDDCLPAYR (UniProt Q9NUI1) | -0.174 |
| DDX3X_O00571_317_GCHLLVATPGR (UniProt O00571) | -0.0548 |
| DENND3_A2RUS2_91_TYGVVAQYYRPLHDEYCFYNGK (UniProt A2RUS2) | 0.0616 |
| DDX5_P17844_89_GHNCPKPVLNFYEANFPANVMDVIAR (UniProt P17844) | -0.235 |

same assay, conditions: 50 µM; THP-1; incubation time: 4 h

| Target | probe-labelled cysteine peptide fold change |
| --- | --- |
| DDX1_Q92499_406_LQVIVCSATLHSFDVK (UniProt Q92499) | 0.0541 |
| DDX39A_O00148_238_DIRPVCR (UniProt O00148) | 0.00375 |
| DDX39A_O00148_164_NCPHVVVGTPGR (UniProt O00148) | 0.0385 |
| DDX5_P17844_320_DYIHINIGALELSANHNILQIVDVCHDVEK (UniProt P17844) | -0.0468 |
| DENND3_A2RUS2_695_DFYNCWK (UniProt A2RUS2) | -0.0306 |
| DDX24_Q9GZR7_467_CLVVDEADRMVEK (UniProt Q9GZR7) | -0.0385 |
| DDX46_Q7L014_696_HLILVVNYSCPNHYEDYVHR (UniProt Q7L014) | 0.0461 |
| DECR2_Q9NUI1_53_HGCHTVIASR (UniProt Q9NUI1) | 0.574 |
| DDX59_Q5T1V6_414_NLPCANVR (UniProt Q5T1V6) | 0.054 |
| DDX17_Q92841_199_PVFAFHHANFPQYVMDVLMDQHFTEPTPIQCQGFPLALSGR (UniProt Q92841) | 0.0351 |
| DDX21_Q9NR30_291_LSVACFYGGTPYGGQFER (UniProt Q9NR30) | 0.0957 |
| DENND3_A2RUS2_499_LTDTAGCR (UniProt A2RUS2) | -0.0235 |
| DDX41_Q9UJV9_294_CALCIGGMSVK (UniProt Q9UJV9) | -0.0596 |
| DDX17_Q92841_397_DYTQINVGNLELSANHNILQIVDVCMESEK (UniProt Q92841) | -0.164 |
| DDX19A_Q9NUU7_166_YPQCLCLSPTYELALQTGK (UniProt Q9NUU7) | 0.359 |
| DDX39B_Q13838_300_CIALAQLLVEQNFPAIAIHR (UniProt Q13838) | 0.206 |
| DGKQ_P52824_638_LLNPHQVFDLTNGGPLPGLHLFSQVPCFR (UniProt P52824) | -0.194 |
| DEAF1_O75398_401_ASHPEPHYPGYQDSCQIAPFPEAALPTSHPK (UniProt O75398) | -0.139 |
| DDX51_Q8N8A6_338_CLADIVVATPGR (UniProt Q8N8A6) | -0.0799 |
| DGKD_Q16760_596_LVASACPARPQIFRPR (UniProt Q16760) | 0.0807 |

| Target | probe-labelled cysteine peptide fold change |
| --- | --- |
| DENR_O43583_13_AADISESSGADCK (UniProt O43583) | -0.362 |
| DDOST_P39656_145_ELGSECGIEFDEEK (UniProt P39656) | -0.00767 |
| DEPDC1B_Q8WUY9_43_SYEHCFTAAEAVDWLHELLR (UniProt Q8WUY9) | -0.0514 |
| DENND4B_O75064_652_HAALEFFDSCVEK (UniProt O75064) | 0.0937 |
| DDX42_Q86XP3_346_ELCQQIHAECKR (UniProt Q86XP3) | 0.0687 |
| DDX60_Q8IY21_1591_VAISPFVCLSGNFDDDLLRLETPNHVTLGTIGVNR (UniProt Q8IY21) | -0.391 |
| DGCR8_Q8WYQ5_352_KHDPPLSSIPCLHYK (UniProt Q8WYQ5) | -0.0993 |
| DGKZ_Q13574_697_VVCDGMDLTPK (UniProt Q13574) | -0.127 |
| DDB1_Q16531_652_SLSTTNVFACSDRPTVIYSSNHK (UniProt Q16531) | -0.133 |
| DDX21_Q9NR30_537+539_TGVCICFYQHK (UniProt Q9NR30) | 0.174 |
| DDX17_Q92841_319_CTYLVLDEADRMLDMGFEPQIR (UniProt Q92841) | -0.0954 |
| DECR1_Q16698_86_GMTTLLSSLGAQCVIASR (UniProt Q16698) | 0.022 |
| DDX41_Q9UJV9_281_QTHGILEYYCR (UniProt Q9UJV9) | 0.166 |
| DEPDC5_O75140_966_ITEGEAHCDIYGDRPR (UniProt O75140) | 0.0134 |
| DEF6_Q9H4E7_266_GIIPLDAHCCVEVLPDRDGKR (UniProt Q9H4E7) | 0.169 |
| DDX60L_Q5H9U9_615_KLEDYLTSCASNSVK (UniProt Q5H9U9) | 0.0613 |
| DECR2_Q9NUI1_13_AQPPPDVEGDDCLPAYR (UniProt Q9NUI1) | 0.067 |
| DDX3X_O00571_317_GCHLLVATPGR (UniProt O00571) | 0.0612 |
| DENND3_A2RUS2_91_TYGVVAQYYRPLHDEYCFYNGK (UniProt A2RUS2) | -0.153 |
| DDX5_P17844_89_GHNCPKPVLNFYEANFPANVMDVIAR (UniProt P17844) | -0.239 |
